PubChem BioAssay AID2685 (National Center for Advancing Translational Sciences (NCATS), 2010)
The list shows a part of the results. Shown are side measurements of this screen, not its main read-out; they come without a call. Most of these compounds were active or inconclusive in the main read-out, so they are no random draw. Words in brackets tell the shape of the fitted curve; partial curves, single points and poor fits give uncertain potencies.

Assay: qHTS Assay for Lipid Storage Modulators in Drosophila S3 Cells;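 on cell number change: cells counted by Cell Tracker Red CMTPX staining in the red channel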
Conditions: BODIPY lipid droplet fluorescence, 18-24 h; for cell number change: measured here: cell count max response, cells fed with added oleic acid
Method in brief: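 Drosophila S3 cells got compounds at several concentrations plus oleic acid (400 uM solution). Laser-scanning cytometry with 488 nm excitation read lipid droplets at 500-530 nm and cells at 575-640 nm. Percent activity was relative to 20 uM Triacsin C.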

[1] = measured here: cell number channel AC50, cells fed with added oleic acid
[2] = measured here: lipid fluorescence (Fed channel) AC50, cells fed with added oleic acid

Structure (SMILES) | cell number change [%] | AC50 [1] | AC50 [2]
Cc1nc(-c2cn[nH]c2-c2ccc(O)cc2O)cs1 | 8.71 |  | 
Cc1nn(CC(=O)N2CCOCC2)c(=O)c2c1sc1ccccc12 | 6.6 | 6.51 µM [rising, single point] | 6.51 µM [rising, partial curve]
O=C(c1ccccc1)c1ccc(OCC(O)CNCc2cccc(Cl)c2)cc1 (centres undefined) | -62.9 | 23.1 µM [falling, single point] | 
Cc1ccc(-c2cc(C(F)F)n3ncc(C(=O)N4CCN(c5ccccn5)CC4)c3n2)cc1 | -32.2 | 16.4 µM [falling, single point] | 
COc1ccc(/C=N/NC(=O)c2cc3c(ccc4ccccc43)o2)cc1OC | -27.2 | 3.66 µM [falling, partial curve, poor fit] | 6.51 µM [falling, single point]
CC(=O)c1cccc(N2C(=O)CC(N3CCN(S(=O)(=O)c4ccc(Cl)cc4)CC3)C2=O)c1 (centres undefined) | 6.27 |  | 29.1 µM [rising, single point]
Cc1nn(C)cc1C(=O)NNC(=S)Nc1ccc(Cl)cc1 | 41.8 | 23.1 µM [rising, single point] | 0.58 µM [rising, single point]
O=C(NCCc1ccccc1)c1ncn[nH]1 | 84 | 20.6 µM [rising, single point] | 
COCCn1c(=O)[nH]c2cc(C(=O)N3CCN(c4ccc(OC)cc4)CC3)ccc2c1=O | 0.952 |  | 6.51 µM [rising, single point]
CC(Oc1ccc(Br)cc1)C(=O)Nc1cc(Cl)ccc1N1CCN(C)CC1 (centres undefined) | -45.3 | 5.17 µM [falling, partial curve] | 6.51 µM [falling, partial curve]
O=C(COc1ccc(S(=O)(=O)N2CCCCC2)cc1)NC1CCCCC1 |  |  | 2.31 µM [falling, partial curve]
COC(=O)COc1cc(=O)oc2ccc(NS(=O)(=O)c3ccccc3)cc12 | -12.5 |  | 6.51 µM [rising, partial curve]
CN(C)S(=O)(=O)c1cccc(NC(=O)C2Cc3ccccc3CN2C(=O)c2ccccc2)c1 (centres undefined) | 25.2 |  | 3.26 µM [falling, full curve, poor fit]
C=CCNC(=O)/C(C#N)=C\c1cc(Cl)c(OCC)c(OC)c1 |  |  | 11.6 µM [falling, partial curve]
COC(=O)/C(=C\C(=O)c1ccc([N+](=O)[O-])cc1)Nc1ccc(OC)cc1 | -29.1 |  | 29.1 µM [falling, single point]
CCCn1nc(NC(=O)c2cccs2)c2cc3cc(C)ccc3nc21 | 22.6 |  | 
Cc1sc2nc(CN3CCC(C)CC3)nc(Cl)c2c1C | -43.5 | 29.1 µM [falling, single point] | 
O=c1[nH]c(/C=C/c2ccccc2Cl)c([N+](=O)[O-])c(=O)[nH]1 | 7.69 |  | 18.4 µM [falling, single point]
CC(c1ccccc1)C(CC(=O)O)C(=O)NC1CCCCC1 (centres undefined) |  |  | 0.259 µM [falling, single point]
CC(C(=O)OCC(=O)Nc1ccc(S(=O)(=O)N2CCCCC2)cc1)N1C(=O)c2ccccc2C1=O (centres undefined) | -29.6 | 0.651 µM [falling, full curve, poor fit] | 18.4 µM [falling, partial curve]

Structure (SMILES) | cell number change [%] | AC50 [1] | AC50 [2]
COc1ccccc1NC(=O)c1ccccc1NC(=O)c1ccccn1 |  |  | 29.1 µM [rising, single point]
COc1ccc(C(=O)Nc2ccccc2C(=O)Nc2ccccc2C(=O)O)cc1 | -22.3 |  | 3.26 µM [falling, full curve, poor fit]
O=C(Nc1ccc(N2CCCCC2)cc1)C1CCCN1S(=O)(=O)c1ccc(F)cc1 (centres undefined) | -23.6 |  | 
O=C(Cc1sc(-c2ccccc2)nc1-c1ccccc1)Nc1ccc(Cl)cc1 | 105 | 23.1 µM [rising, single point] | 29.1 µM [rising, single point]
C/C(=N\OCC(=O)Nc1ccc(Br)cc1)c1cccs1 | -24.9 | 0.651 µM [falling, full curve, poor fit] | 
N#CCC(=O)N/N=C/c1cn(Cc2ccccc2C#N)c2ccccc12 | 30.9 | 0.517 µM [rising, full curve, poor fit] | 
COC(=O)c1cc(Br)c(=O)n(CCC2=CCCCC2)c1 | 6.04 | 2.06 µM [falling, partial curve] | 29.1 µM [rising, single point]
COc1ccccc1NC(=O)c1sc2nc(N3CCOCC3)c3c(c2c1N)CCCC3 | -14.6 |  | 29.1 µM [falling, single point]
O=C(NC(=S)NNC(=O)c1cnccn1)c1ccc(Cl)cc1 | 39 | 14.6 µM [rising, partial curve, poor fit] | 6.51 µM [falling, single point]
Cc1c(NC(=O)c2cnc(Cl)c(Cl)c2)c(=O)n(-c2ccccc2)n1C | 16.5 |  | 
CC(=O)c1ccc(S(=O)(=O)NCC2(N3CCOCC3)CCCCC2)cc1 | 20.9 |  | 20.6 µM [rising, single point]
O=C1C(=O)c2ccc(-c3ccccc3)cc2-c2ccccc21 | -50.5 | 2.31 µM [falling, full curve] | 3.26 µM [falling, full curve]
Cn1cncc1C#Cc1ccc2cc(C(C)(C)O)oc(=O)c2c1 | -35.3 | 25.9 µM [falling, single point] | 18.4 µM [rising, single point]
O=C1NC(c2ccccc2)CCO1 (centres undefined) | 12 |  | 29.1 µM [rising, single point]
CCc1nnc(NC(=O)c2cc(Cl)ccn2)s1 | -1.39 |  | 
CC1(C(=O)N2CCN(c3ccccc3)CC2)CC1(Cl)Cl (centres undefined) | -31.9 | 0.082 µM [falling, full curve, poor fit] | 0.082 µM [falling, full curve, poor fit]
O=C(CCc1c[nH]c2ccccc12)NC(Cc1c[nH]c2ccccc12)C(=O)O (centres undefined) | 21.6 |  | 29.1 µM [rising, single point]
CCS(=O)(=O)c1ccc(S(=O)(=O)CC)s1 | -2.27 |  | 
CCNC(=O)COC(=O)c1cc(C)n(-c2ccccc2)c1C | 12.3 |  | 
O=C(CSc1n[nH]c(-c2ccccc2Cl)n1)NC1CCCCC1 | -20 |  | 29.1 µM [falling, single point]

Structure (SMILES) | cell number change [%] | AC50 [1] | AC50 [2]
CC(NC(=S)NC(=O)c1ccccc1Br)c1ccccc1 (centres undefined) | -19 |  | 6.51 µM [rising, single point]
Cc1nc2c(-c3ccc(F)cc3)c(C)nn2c(C)c1CCC(=O)NCCN1CCOCC1 | -38.9 | 11.6 µM [falling, partial curve, poor fit] | 0.731 µM [falling, full curve]
O=C(O)c1ccc(OCCCCCCOC2CCCCO2)cc1 (centres undefined) | 21.9 |  | 25.9 µM [rising, single point]
COc1ccc(NC(=O)COC(=O)c2ccc(S(=O)(=O)N(C)c3ccccc3OC)cc2)c(OC)c1 | 62.5 | 32.6 µM [rising, partial curve, poor fit] | 6.51 µM [rising, partial curve, poor fit]
Cc1oc2c(CN3CCCCC3C)c(O)ccc2c(=O)c1-c1ccccc1 (centres undefined) | -6.94 |  | 
COCCn1c(SCC(=O)c2c(N)n(C3CC3)c(=O)[nH]c2=O)nnc1-c1cccc(C)c1 | -40.1 | 18.4 µM [falling, single point] | 20.6 µM [falling, single point]
O=C(CNS(=O)(=O)c1cccc2nsnc12)NCc1ccc(Cl)cc1 | 42.9 | 20.6 µM [rising, single point] | 
C=CCSc1nnc2c(n1)OC=Nc1ccc(Br)cc1-2 | -10.9 |  | 16.4 µM [falling, partial curve, poor fit]
CCOC(=O)C1CCN(C(=O)CCCNC(=O)Cn2cnc3sc(C)c(C)c3c2=O)CC1 | 17.1 |  | 6.51 µM [rising, partial curve, poor fit]
CCOC(=O)CSc1nnc2n(C3CCCCC3)c(=O)c3c4c(sc3n12)CCCC4 | 2.17 |  | 
Cc1sc2c(c1C)c(=O)n(-c1cccc(C(F)(F)F)c1)c(=O)n2CC(=O)NCc1ccco1 | 17.1 |  | 
CN(C)N1C(N)=C(C#N)C(c2ccccc2Cl)C2=C1CCCC2=O (centres undefined) | -13.9 |  | 29.1 µM [falling, partial curve]
O=C(NNC(=O)c1ccc2c(=O)n3c(nc2c1)CCC3)c1ccc(F)cc1 | 47.6 | 29.1 µM [rising, single point] | 
C=CC[n+]1ccc(/C=C2\C=Cc3cc(C)ccc3N2CC)c2ccccc21 | -48.8 | 0.92 µM [falling, full curve] | 1.3 µM [falling, full curve]
COc1ccc(CNC2CCSc3ccccc32)cc1OC (centres undefined) | 7.21 |  | 
CCOc1ccccc1NC(=O)CCc1nnc2ccc(N3CCC4(CC3)OCCO4)nn12 | 5.24 | 5.8 µM [rising, single point] | 29.1 µM [falling, single point]
C=CCC(C#Cc1ccc(C)cc1)N(CC)CC (centres undefined) |  | 7.31 µM [falling, partial curve, poor fit] | 5.17 µM [falling, partial curve]
N#CC(c1ccc(Cl)nn1)c1ccc(Cl)cc1Cl (centres undefined) | 4.13 |  | 
COc1ccc(-n2ncc3c2CC(C)(C)CC3NC(=O)c2ocnc2C)cc1 (centres undefined) | -39.4 | 0.316 µM [falling, full curve] | 35.5 µM [falling, single point]

Reprinted from the listing for reference:
Structure (SMILES) | cell number change [%] | AC50 [1] | AC50 [2]
CC(NC(=S)NC(=O)c1ccccc1Br)c1ccccc1 (centres undefined) | -19 |  | 6.51 µM [rising, single point]
Cc1nc2c(-c3ccc(F)cc3)c(C)nn2c(C)c1CCC(=O)NCCN1CCOCC1 | -38.9 | 11.6 µM [falling, partial curve, poor fit] | 0.731 µM [falling, full curve]
O=C(O)c1ccc(OCCCCCCOC2CCCCO2)cc1 (centres undefined) | 21.9 |  | 25.9 µM [rising, single point]
COc1ccc(NC(=O)COC(=O)c2ccc(S(=O)(=O)N(C)c3ccccc3OC)cc2)c(OC)c1 | 62.5 | 32.6 µM [rising, partial curve, poor fit] | 6.51 µM [rising, partial curve, poor fit]
Cc1oc2c(CN3CCCCC3C)c(O)ccc2c(=O)c1-c1ccccc1 (centres undefined) | -6.94 |  | 
COCCn1c(SCC(=O)c2c(N)n(C3CC3)c(=O)[nH]c2=O)nnc1-c1cccc(C)c1 | -40.1 | 18.4 µM [falling, single point] | 20.6 µM [falling, single point]
O=C(CNS(=O)(=O)c1cccc2nsnc12)NCc1ccc(Cl)cc1 | 42.9 | 20.6 µM [rising, single point] | 
C=CCSc1nnc2c(n1)OC=Nc1ccc(Br)cc1-2 | -10.9 |  | 16.4 µM [falling, partial curve, poor fit]
CCOC(=O)C1CCN(C(=O)CCCNC(=O)Cn2cnc3sc(C)c(C)c3c2=O)CC1 | 17.1 |  | 6.51 µM [rising, partial curve, poor fit]
CCOC(=O)CSc1nnc2n(C3CCCCC3)c(=O)c3c4c(sc3n12)CCCC4 | 2.17 |  | 
Cc1sc2c(c1C)c(=O)n(-c1cccc(C(F)(F)F)c1)c(=O)n2CC(=O)NCc1ccco1 | 17.1 |  | 
CN(C)N1C(N)=C(C#N)C(c2ccccc2Cl)C2=C1CCCC2=O (centres undefined) | -13.9 |  | 29.1 µM [falling, partial curve]
O=C(NNC(=O)c1ccc2c(=O)n3c(nc2c1)CCC3)c1ccc(F)cc1 | 47.6 | 29.1 µM [rising, single point] | 
C=CC[n+]1ccc(/C=C2\C=Cc3cc(C)ccc3N2CC)c2ccccc21 | -48.8 | 0.92 µM [falling, full curve] | 1.3 µM [falling, full curve]
COc1ccc(CNC2CCSc3ccccc32)cc1OC (centres undefined) | 7.21 |  | 
CCOc1ccccc1NC(=O)CCc1nnc2ccc(N3CCC4(CC3)OCCO4)nn12 | 5.24 | 5.8 µM [rising, single point] | 29.1 µM [falling, single point]
C=CCC(C#Cc1ccc(C)cc1)N(CC)CC (centres undefined) |  | 7.31 µM [falling, partial curve, poor fit] | 5.17 µM [falling, partial curve]
N#CC(c1ccc(Cl)nn1)c1ccc(Cl)cc1Cl (centres undefined) | 4.13 |  | 
